Laboratory results as given in the supplement of paper PMC5836539.
± gives the standard deviation of the averaged measurements. Repeats in this data set agree poorly, so a single value says little.

Protein sequences, listed by entry. Tags and fused reporters are not part of them. Lines headed by an entry give the natural chain unless they say otherwise; changes in a name come on top.
UniProt Q9H8Y5: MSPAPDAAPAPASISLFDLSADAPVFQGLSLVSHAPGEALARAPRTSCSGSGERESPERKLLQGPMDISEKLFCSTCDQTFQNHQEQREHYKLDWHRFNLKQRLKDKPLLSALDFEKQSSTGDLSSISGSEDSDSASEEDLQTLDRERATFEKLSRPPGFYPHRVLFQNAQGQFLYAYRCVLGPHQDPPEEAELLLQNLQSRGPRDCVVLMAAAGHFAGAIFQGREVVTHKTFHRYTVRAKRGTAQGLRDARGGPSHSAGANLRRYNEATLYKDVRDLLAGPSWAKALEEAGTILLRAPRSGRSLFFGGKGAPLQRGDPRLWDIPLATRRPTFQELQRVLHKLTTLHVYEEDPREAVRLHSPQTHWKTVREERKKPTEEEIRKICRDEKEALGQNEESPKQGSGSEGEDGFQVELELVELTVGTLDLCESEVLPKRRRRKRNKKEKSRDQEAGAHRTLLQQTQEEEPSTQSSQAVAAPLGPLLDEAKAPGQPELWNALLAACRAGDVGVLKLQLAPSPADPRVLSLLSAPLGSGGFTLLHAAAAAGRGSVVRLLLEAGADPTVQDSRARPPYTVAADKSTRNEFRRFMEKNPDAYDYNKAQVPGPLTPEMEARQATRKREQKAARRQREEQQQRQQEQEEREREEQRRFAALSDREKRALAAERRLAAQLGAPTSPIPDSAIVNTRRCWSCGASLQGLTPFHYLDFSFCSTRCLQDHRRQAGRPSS
UniProt P07355, whole entry, looked up: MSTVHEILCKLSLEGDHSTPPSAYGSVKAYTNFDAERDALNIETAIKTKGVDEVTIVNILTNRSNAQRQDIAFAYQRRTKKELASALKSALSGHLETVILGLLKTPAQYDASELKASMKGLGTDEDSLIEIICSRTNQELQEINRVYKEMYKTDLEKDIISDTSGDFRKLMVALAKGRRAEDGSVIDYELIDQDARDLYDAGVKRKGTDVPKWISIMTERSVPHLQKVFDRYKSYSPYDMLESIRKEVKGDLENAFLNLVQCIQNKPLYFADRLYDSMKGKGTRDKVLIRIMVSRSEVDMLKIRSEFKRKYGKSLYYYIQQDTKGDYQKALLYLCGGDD
UniProt Q92934: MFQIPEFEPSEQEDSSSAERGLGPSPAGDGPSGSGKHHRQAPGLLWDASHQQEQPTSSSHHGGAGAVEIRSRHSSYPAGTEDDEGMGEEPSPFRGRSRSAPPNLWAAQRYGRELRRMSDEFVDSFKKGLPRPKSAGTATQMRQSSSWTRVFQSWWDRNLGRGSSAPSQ
UniProt Q7Z7L8: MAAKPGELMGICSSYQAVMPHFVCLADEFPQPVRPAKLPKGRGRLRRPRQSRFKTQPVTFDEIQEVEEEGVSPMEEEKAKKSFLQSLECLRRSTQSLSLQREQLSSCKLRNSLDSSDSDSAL
UniProt Q5SW79: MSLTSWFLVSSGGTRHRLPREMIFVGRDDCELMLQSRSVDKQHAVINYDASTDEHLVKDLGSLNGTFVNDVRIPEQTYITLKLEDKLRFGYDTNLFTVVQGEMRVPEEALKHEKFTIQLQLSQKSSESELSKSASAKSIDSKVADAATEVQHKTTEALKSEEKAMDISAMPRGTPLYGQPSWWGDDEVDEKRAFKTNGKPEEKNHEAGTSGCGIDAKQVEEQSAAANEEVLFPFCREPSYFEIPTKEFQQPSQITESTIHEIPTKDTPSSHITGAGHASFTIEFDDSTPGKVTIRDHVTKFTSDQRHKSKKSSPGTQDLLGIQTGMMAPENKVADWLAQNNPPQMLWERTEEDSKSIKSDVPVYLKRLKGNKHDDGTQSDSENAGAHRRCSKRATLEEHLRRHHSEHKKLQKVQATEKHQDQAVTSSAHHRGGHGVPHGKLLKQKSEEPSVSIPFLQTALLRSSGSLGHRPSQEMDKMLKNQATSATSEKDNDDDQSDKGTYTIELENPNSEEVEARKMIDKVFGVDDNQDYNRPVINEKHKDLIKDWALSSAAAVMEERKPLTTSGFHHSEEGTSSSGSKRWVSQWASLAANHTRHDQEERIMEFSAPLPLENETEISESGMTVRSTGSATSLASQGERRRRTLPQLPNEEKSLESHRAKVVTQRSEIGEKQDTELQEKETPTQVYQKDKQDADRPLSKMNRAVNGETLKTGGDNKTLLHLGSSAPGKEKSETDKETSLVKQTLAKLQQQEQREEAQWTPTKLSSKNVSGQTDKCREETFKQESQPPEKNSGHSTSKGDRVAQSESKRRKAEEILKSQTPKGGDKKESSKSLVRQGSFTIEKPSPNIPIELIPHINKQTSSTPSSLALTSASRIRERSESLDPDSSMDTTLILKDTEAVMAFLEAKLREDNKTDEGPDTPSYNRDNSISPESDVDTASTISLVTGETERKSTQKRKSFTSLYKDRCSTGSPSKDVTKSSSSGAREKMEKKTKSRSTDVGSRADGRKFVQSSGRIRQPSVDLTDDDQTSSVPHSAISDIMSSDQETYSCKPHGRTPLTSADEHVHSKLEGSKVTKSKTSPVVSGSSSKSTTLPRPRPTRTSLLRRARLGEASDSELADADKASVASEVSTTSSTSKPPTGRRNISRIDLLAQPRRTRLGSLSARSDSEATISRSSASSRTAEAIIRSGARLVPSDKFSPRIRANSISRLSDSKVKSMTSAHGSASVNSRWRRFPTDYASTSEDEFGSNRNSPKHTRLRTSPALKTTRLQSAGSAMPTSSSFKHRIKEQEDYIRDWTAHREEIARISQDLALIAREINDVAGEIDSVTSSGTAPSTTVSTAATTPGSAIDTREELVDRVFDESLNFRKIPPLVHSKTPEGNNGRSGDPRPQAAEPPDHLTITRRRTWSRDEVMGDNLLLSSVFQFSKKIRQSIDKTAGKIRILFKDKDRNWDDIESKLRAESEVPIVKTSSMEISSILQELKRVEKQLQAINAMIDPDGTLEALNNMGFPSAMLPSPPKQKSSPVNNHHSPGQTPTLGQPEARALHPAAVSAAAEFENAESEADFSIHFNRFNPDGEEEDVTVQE
UniProt P06733, whole entry, looked up: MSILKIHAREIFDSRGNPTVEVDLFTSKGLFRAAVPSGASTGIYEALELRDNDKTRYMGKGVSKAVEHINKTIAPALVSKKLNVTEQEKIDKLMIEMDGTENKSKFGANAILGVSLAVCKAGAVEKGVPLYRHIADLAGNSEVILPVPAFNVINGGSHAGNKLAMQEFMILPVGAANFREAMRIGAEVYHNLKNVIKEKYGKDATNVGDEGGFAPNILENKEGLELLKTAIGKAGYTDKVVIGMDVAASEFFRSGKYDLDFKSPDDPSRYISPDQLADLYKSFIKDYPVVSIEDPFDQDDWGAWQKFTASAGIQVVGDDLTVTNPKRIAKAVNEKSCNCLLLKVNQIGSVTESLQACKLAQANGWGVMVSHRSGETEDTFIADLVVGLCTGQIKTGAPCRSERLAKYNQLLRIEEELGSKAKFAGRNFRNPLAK
UniProt Q92598: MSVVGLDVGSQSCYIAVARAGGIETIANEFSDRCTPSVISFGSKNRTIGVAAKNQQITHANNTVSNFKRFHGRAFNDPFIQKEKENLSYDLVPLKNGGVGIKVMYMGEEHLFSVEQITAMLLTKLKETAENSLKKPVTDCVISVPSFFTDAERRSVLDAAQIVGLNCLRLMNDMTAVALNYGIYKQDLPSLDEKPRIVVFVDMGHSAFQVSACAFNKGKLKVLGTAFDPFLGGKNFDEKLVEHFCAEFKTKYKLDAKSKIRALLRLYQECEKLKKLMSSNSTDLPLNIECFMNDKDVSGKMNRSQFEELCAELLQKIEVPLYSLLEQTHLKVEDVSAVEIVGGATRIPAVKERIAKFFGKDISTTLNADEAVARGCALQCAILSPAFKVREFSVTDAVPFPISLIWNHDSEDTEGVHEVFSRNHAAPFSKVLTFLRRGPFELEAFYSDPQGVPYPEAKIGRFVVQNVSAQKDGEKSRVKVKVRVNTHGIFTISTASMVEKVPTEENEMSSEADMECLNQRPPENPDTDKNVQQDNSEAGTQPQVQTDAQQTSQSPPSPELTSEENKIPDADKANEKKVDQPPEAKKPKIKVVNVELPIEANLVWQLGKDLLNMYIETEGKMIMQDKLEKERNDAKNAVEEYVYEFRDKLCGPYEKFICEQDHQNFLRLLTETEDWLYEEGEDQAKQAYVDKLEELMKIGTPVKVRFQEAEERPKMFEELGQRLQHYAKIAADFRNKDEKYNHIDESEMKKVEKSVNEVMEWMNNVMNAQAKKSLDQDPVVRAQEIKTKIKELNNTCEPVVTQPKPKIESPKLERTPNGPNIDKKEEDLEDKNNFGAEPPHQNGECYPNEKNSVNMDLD
UniProt O43719: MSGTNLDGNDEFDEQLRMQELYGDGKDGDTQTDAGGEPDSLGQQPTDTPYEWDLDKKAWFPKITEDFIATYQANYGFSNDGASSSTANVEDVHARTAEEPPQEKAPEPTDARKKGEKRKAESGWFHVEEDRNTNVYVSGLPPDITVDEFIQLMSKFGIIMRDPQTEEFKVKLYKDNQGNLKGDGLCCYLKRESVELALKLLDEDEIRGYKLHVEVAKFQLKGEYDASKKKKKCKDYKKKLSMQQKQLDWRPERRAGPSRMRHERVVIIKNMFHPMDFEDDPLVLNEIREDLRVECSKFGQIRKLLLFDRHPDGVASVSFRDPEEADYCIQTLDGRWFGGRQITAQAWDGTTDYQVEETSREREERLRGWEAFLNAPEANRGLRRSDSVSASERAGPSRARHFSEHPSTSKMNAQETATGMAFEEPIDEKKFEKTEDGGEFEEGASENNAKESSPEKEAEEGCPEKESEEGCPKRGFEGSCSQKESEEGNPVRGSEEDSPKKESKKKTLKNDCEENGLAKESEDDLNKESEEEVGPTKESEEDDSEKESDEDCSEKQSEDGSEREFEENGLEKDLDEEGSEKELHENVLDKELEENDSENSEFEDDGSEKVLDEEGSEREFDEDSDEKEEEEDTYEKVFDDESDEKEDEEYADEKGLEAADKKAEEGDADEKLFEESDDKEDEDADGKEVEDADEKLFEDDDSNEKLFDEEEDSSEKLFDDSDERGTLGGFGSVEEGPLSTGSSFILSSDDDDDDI
UniProt Q7Z3T8: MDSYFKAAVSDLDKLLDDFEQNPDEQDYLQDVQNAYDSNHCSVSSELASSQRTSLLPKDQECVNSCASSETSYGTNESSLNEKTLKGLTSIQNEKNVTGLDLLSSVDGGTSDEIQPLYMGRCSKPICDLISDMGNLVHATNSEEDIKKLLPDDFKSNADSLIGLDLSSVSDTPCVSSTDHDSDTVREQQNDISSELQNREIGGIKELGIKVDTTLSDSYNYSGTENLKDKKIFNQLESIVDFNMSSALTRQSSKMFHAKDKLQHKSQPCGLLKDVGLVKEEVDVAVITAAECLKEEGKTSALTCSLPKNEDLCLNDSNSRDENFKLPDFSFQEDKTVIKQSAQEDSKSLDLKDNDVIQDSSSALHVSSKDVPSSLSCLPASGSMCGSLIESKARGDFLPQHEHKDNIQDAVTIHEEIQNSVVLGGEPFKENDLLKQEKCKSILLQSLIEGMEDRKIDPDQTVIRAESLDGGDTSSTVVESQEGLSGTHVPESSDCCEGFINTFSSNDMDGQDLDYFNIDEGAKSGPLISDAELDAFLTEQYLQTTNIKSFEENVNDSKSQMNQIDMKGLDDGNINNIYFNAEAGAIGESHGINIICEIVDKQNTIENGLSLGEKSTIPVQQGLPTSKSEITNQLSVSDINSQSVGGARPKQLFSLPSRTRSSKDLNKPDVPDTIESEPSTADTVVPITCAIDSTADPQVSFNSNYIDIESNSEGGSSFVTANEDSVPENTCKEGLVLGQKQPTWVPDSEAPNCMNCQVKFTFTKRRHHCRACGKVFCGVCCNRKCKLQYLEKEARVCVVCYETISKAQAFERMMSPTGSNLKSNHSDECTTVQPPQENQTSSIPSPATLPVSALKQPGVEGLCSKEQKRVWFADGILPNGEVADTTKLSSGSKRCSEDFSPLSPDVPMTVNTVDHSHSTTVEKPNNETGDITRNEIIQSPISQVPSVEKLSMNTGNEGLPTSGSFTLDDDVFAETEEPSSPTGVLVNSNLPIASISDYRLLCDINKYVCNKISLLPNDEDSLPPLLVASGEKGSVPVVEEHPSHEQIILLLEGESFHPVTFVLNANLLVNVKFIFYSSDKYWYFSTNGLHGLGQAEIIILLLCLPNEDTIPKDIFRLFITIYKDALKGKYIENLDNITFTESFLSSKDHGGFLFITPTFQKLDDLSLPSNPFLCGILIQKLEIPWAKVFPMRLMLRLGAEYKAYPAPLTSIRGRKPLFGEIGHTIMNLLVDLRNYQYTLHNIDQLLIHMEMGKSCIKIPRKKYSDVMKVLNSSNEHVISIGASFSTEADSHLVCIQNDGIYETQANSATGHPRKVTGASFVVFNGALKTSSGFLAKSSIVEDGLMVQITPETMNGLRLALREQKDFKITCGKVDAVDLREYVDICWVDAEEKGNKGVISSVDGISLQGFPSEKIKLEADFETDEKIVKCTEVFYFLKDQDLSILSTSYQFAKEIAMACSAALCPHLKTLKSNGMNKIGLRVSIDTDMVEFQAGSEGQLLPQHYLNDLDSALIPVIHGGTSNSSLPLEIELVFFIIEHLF

Legend:
XL888 [1] = compound: T1, CC[C@@H](C)Nc1cc(C(=O)N[C@H]2C[C@H]3CC[C@@H](C2)N3c2ccc(C(=O)C3CC3)cn2)c(C)cc1C(N)=O [XL888]; test: phosphopeptide melting temperature shift (XL888 minus DMSO); higher = stabilised by drug treatment; conditions: 100 µM; treatment time 2 h; layout: intact cells; SK-Mel 24
Protocol: (§1)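 Phospho-TPP in intact SK-Mel 24 cells treated with 100 uM XL888 or DMSO for 2 h, heated at 10 temperatures (37-67 C) for 3 min, soluble fraction TMT10plex-labelled and TiO2 phospho-enriched. Melting curves were fitted per phosphopeptide; the value is the melting point difference (drug minus vehicle) in each of two biological replicates.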

XL888 [2] = compound: T1, XL888; test: as above; conditions: 100 µM; treatment time 2 h; layout: intact cells; SK-Mel 28
Protocol: as §1, with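 “28” for “24”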

| Target | phosphopeptide melting temperature shift (XL888 [1]) [°C] | phosphopeptide melting temperature shift (XL888 [2]) [°C] |
| --- | --- | --- |
| ACIN1 phosphosite_216 (phosphosite position: 216) (UniProt Q9UKV3) | 3.87 | – |
| ACIN1 phosphosite_729 (phosphosite position: 729) (UniProt Q9UKV3) | 2.45 | – |
| ACLY phosphosite_481 (phosphosite position: 481) (UniProt P53396) | -0.659 | – |
| ACSS2 phosphosite_30 (phosphosite position: 30) (UniProt Q9NR19) | -1.18 | – |
| ACTR10 phosphosite_414 (phosphosite position: 414) (UniProt Q9NZ32) | -1.29 | – |
| ADD1 phosphosite_12 (phosphosite position: 12) (UniProt P35611) | 0.0536 ± 2.1 | – |
| AHNAK phosphosite_5448 (phosphosite position: 5448) (UniProt Q09666) | -3.18 | – |
| AKR7A2 phosphosite_255 (phosphosite position: 255) (UniProt O43488) | -1.17 ± 0.23 | – |
| AKT3 phosphosite_447 (phosphosite position: 447) (UniProt Q9Y243) | 0.637 | – |
| ALS2 phosphosite_466 (phosphosite position: 466) (UniProt Q96Q42) | 0.402 | – |
| ANKS1A phosphosite_626 (phosphosite position: 626) (UniProt Q92625) | 0.994 | – |
| ANKS1A phosphosite_677 (phosphosite position: 677) (UniProt Q92625) | -1.41 | – |
| ANKZF1 phosphosite_56 (phosphosite position: 56) (UniProt Q9H8Y5) | 1.01 | – |
| ANXA2 phosphosite_18 (phosphosite position: 18) (UniProt P07355) | 0.552 | – |
| ANXA2 phosphosite_19 (phosphosite position: 19) (UniProt P07355) | -0.0348 ± 0.078 | – |
| ANXA2 phosphosite_24 (phosphosite position: 24) (UniProt P07355) | 0.135 | – |
| ARFGAP1 phosphosite_189 (phosphosite position: 189) (UniProt Q8N6T3) | -0.27 | – |
| ARGLU1 phosphosite_77 (phosphosite position: 77) (UniProt Q9NWB6) | 1.28 | – |
| ARHGEF11 phosphosite_1480 (phosphosite position: 1480) (UniProt O15085) | -1.11 | – |
| BAD phosphosite_118 (phosphosite position: 118) (UniProt Q92934) | 6.22 | – |
| BAIAP2L1 phosphosite_414 (phosphosite position: 414) (UniProt Q9UHR4) | 3.24 | – |
| BNIP2 phosphosite_114 (phosphosite position: 114) (UniProt Q12982) | 0.0841 ± 0.16 | – |
| BRD4 phosphosite_601 (phosphosite position: 601) (UniProt O60885) | -0.82 | – |

| Target | phosphopeptide melting temperature shift (XL888 [1]) [°C] | phosphopeptide melting temperature shift (XL888 [2]) [°C] |
| --- | --- | --- |
| C5orf30 phosphosite_25 (phosphosite position: 25) (UniProt Q96GV9) | 1.19 | – |
| C11orf96 phosphosite_399 (phosphosite position: 399) (UniProt Q7Z7L8) | -0.182 ± 0.039 | – |
| C17orf75 phosphosite_18 (phosphosite position: 18) (UniProt Q9HAS0) | 0.512 | – |
| CANX phosphosite_564 (phosphosite position: 564) (UniProt P27824) | 3.55 | – |
| CCT2 phosphosite_260 (phosphosite position: 260) (UniProt P78371) | -0.563 | – |
| CD2BP2 phosphosite_49 (phosphosite position: 49) (UniProt O95400) | 2.56 | – |
| CEP170 phosphosite_379 (phosphosite position: 379) (UniProt Q5SW79) | 1.32 | – |
| CEP170 phosphosite_958 (phosphosite position: 958) (UniProt Q5SW79) | -1.19 | – |
| CEP170 phosphosite_1165 (phosphosite position: 1165) (UniProt Q5SW79) | 0.282 | – |
| CTNNA1 phosphosite_641 (phosphosite position: 641) (UniProt P35221) | 0.17 | – |
| DIDO1 phosphosite_1714 (phosphosite position: 1714) (UniProt Q9BTC0) | -0.96 | – |
| DNMT1 phosphosite_143 (phosphosite position: 143) (UniProt P26358) | 2.57 | – |
| EEF2 phosphosite_57 (phosphosite position: 57) (UniProt P13639) | 1.48 ± 1.3 | – |
| EIF5B phosphosite_164 (phosphosite position: 164) (UniProt O60841) | 0.679 | – |
| EML3 phosphosite_176 (phosphosite position: 176) (UniProt Q32P44) | -0.845 | – |
| EML4 phosphosite_176 (phosphosite position: 176) (UniProt Q9HC35) | 0.97 | – |
| ENO1 phosphosite_27 (phosphosite position: 27) (UniProt P06733) | -0.595 | – |
| ENO1 phosphosite_263 (phosphosite position: 263) (UniProt P06733) | 1.2 ± 1.2 | – |
| ENO1 phosphosite_272 (phosphosite position: 272) (UniProt P06733) | -2.44 | – |
| ENO1 phosphosite_419 (phosphosite position: 419) (UniProt P06733) | -1.62 | – |
| EPS15L1 phosphosite_253 (phosphosite position: 253) (UniProt Q9UBC2) | 0.603 | – |
| FAM53C phosphosite_122 (phosphosite position: 122) (UniProt Q9NYF3) | 0.504 | – |
| FAM122B phosphosite_50 (phosphosite position: 50) (UniProt Q7Z309) | 1.91 | – |

| Target | phosphopeptide melting temperature shift (XL888 [1]) [°C] | phosphopeptide melting temperature shift (XL888 [2]) [°C] |
| --- | --- | --- |
| FASN phosphosite_2204 (phosphosite position: 2204) (UniProt P49327) | -0.173 ± 0.13 | – |
| GAPDH phosphosite_210 (phosphosite position: 210) (UniProt P04406) | -0.0667 | – |
| GAPDH phosphosite_211 (phosphosite position: 211) (UniProt P04406) | 1.76 | – |
| GTPBP1 phosphosite_25 (phosphosite position: 25) (UniProt O00178) | -0.0797 | – |
| HNRNPU phosphosite_271 (phosphosite position: 271) (UniProt Q00839) | -1.53 ± 0.18 | – |
| HNRNPUL2 phosphosite_161 (phosphosite position: 161) (UniProt Q1KMD3) | -0.435 | – |
| HSPA4 phosphosite_76 (phosphosite position: 76) (UniProt P34932) | -1.71 | – |
| HSPH1 phosphosite_809 (phosphosite position: 809) (UniProt Q92598) | 0.0341 ± 0.55 | – |
| HTATSF1 phosphosite_498 (phosphosite position: 498) (UniProt O43719) | 0.811 ± 0.25 | – |
| HTATSF1 phosphosite_579 (phosphosite position: 579) (UniProt O43719) | 2.1 | – |
| HTATSF1 phosphosite_714 (phosphosite position: 714) (UniProt O43719) | 0.718 | – |
| HTT phosphosite_1862 (phosphosite position: 1862) (UniProt P42858) | -0.37 | – |
| ZFP36L2 phosphosite_490 (phosphosite position: 490) (UniProt P47974) | – | -2.9 |
| ZFR phosphosite_1054 (phosphosite position: 1054) (UniProt Q96KR1) | – | 2.05 ± 0.98 |
| ZFYVE16 phosphosite_142 (phosphosite position: 142) (UniProt Q7Z3T8) | – | 0.512 |
| ZNF318 phosphosite_1243 (phosphosite position: 1243) (UniProt Q5VUA4) | – | 7.93 ± 1.8 |
| ZNF579 phosphosite_483 (phosphosite position: 483) (UniProt Q8NAF0) | – | 0.926 |
| ZNF609 phosphosite_491 (phosphosite position: 491) (UniProt O15014) | – | 4.49 |
| ZNF652 phosphosite_100 (phosphosite position: 100) (UniProt Q9Y2D9) | – | 4.19 ± 1 |
| ZNF652 phosphosite_103 (phosphosite position: 103) (UniProt Q9Y2D9) | – | 4.19 ± 1 |
| ZNF800 phosphosite_595 (phosphosite position: 595) (UniProt Q2TB10) | – | -1.5 |

A portion of the results above, as a working copy:

| Target | phosphopeptide melting temperature shift (XL888 [1]) [°C] | phosphopeptide melting temperature shift (XL888 [2]) [°C] |
| --- | --- | --- |
| ZFYVE16 phosphosite_142 (phosphosite position: 142) (UniProt Q7Z3T8) | – | 0.512 |
| ZNF318 phosphosite_1243 (phosphosite position: 1243) (UniProt Q5VUA4) | – | 7.93 ± 1.8 |
